PubChem BioAssay AID274 (DTP/NCI, 2004)
The list is a part of this screen's results and no random one: it covers a few groups of compounds. Other doses and runs of a compound may be missing. T/C gives the treated animals as a percentage of the vehicle group. Some entries give survivors of the animals treated and no T/C: the source holds a T/C of zero for them, seemingly a mark for toxic or unscored doses. Some doses without a T/C left all or most animals alive at the check, yet need not have been tolerated: the source hardly ever lists a survival T/C far under the control, and the zero likely stands for such cases as well. Survivors were counted at the toxicity check, usually on the fifth day, unless a day is given; later deaths do not show. Schedule codes are those of the source, read here as Q, the interval in days (D) or hours (H), X, the number of doses. Some metal complexes and salts are drawn in pieces, as in the source, so charges may not balance. Some entries hold several experiments; the values are given in rising order. Where survival is the endpoint, this PubChem deposit counts one and a half times the control or more as active, and values a quarter to a half above the control carry no call in these data; other NCI protocols may use other cut-offs. Some T/C values carry the count of animals alive at the toxicity check (mostly the fifth day); where neither a count nor a note follows, no animal had died by that day.

Tested on: BDF1 mice, Lewis lung carcinoma iv, survival T/C
Assay: NCI In Vivo Anticancer Drug Screen. Data for tumor model Lewis Lung Carcinoma (intravenous) in B6D2F1 (BDF1) mice
Settings: T/C endpoint: median survival time, schedule: Q01DX009 (ip), higher T/C = longer survival
Method: The antitumor activity of compounds was measured in mice bearing transplantable tumors. Survival or tumor size were measured and the results are expressed as the measurement made in the treated group (T) divided by the measurement made in the vehicle treated control group (C). The tumor model used in this assay is Lewis Lung Carcinoma (intravenous) in B6D2F1 (BDF1) mice

[1] = dose: 25.0 mg/kg/injection, vehicle: saline with Tween-80
[2] = dose: 50.0 mg/kg/injection, vehicle: saline with Tween-80
[3] = dose: 100.0 mg/kg/injection, vehicle: saline with Tween-80
[4] = dose: 200.0 mg/kg/injection, vehicle: saline with Tween-80
[5] = dose: 400.0 mg/kg/injection, vehicle: saline with Tween-80

With `NC(=O)c1[nH]cnc1/N=N\N(CCCl)CCCl` as the compound, how does the T/C (dose: 12.5 mg/kg/injection, vehicle: saline with Tween-80) read?
Its T/C is 130 % of control.

What about the T/C [1] of the same compound?
Its T/C is 146 % of control.

What about the T/C [2] of the same compound?
Its T/C is 256 % of control.

What about the T/C [3] of the same compound?
The T/C was 89 % of control.

And the survivor count [4]?
Its survivor count is 10 of 10.

And the survivor count [5]?
Its survivor count is 9 of 10.

Which results are given for `[Au].[C-]#N.[C-]#N`?
T/C (dose: 0.62 mg/kg/injection, vehicle: saline): 96 % of control; T/C (dose: 1.25 mg/kg/injection, vehicle: saline): 98 and 101 % of control; T/C (dose: 2.5 mg/kg/injection, vehicle: saline): 98 and 104 % of control; T/C (dose: 5.0 mg/kg/injection, vehicle: saline): 97 and 111 % of control; T/C (dose: 10.0 mg/kg/injection, vehicle: saline): 103 and 110 % of control; survivor count (dose: 20.0 mg/kg/injection, vehicle: saline): 0 of 10 and 4 of 10

What does the source list for `ClC1CSC1`?
T/C [1]: 97 % of control; T/C [2]: 95 % of control; T/C [3]: 106 % of control; survivor count [4]: 3 of 10; survivor count [5]: 0 of 10

How did the T/C (dose: 12.5 mg/kg/injection, vehicle: saline) turn out when `CC1(C)CN1P(=O)(Nc1ncccn1)N1CC1(C)C` (centres undefined) was run?
The T/C was 109 % of control.

And the T/C (dose: 25.0 mg/kg/injection, vehicle: saline)?
Its T/C is 100 % of control.

And the T/C (dose: 50.0 mg/kg/injection, vehicle: saline)?
Its T/C is 100 % of control.

And the T/C (dose: 100.0 mg/kg/injection, vehicle: saline)?
The T/C was 90 % of control.

And the T/C (dose: 200.0 mg/kg/injection, vehicle: saline)?
Its T/C is 100 % of control.

And the T/C (dose: 400.0 mg/kg/injection, vehicle: saline)?
Its T/C is 97 % of control.

Which T/C (dose: 12.5 mg/kg/injection, vehicle: Klucel (hydroxypropylcellulose) (HPC)) does the source give for `CC(=O)OC(SC(OC(C)=O)C(Cl)(Cl)Cl)C(Cl)(Cl)Cl` (centres undefined) here?
The T/C was 98 % of control.

What about the T/C (dose: 25.0 mg/kg/injection, vehicle: Klucel (hydroxypropylcellulose) (HPC)) of the same compound?
The T/C was 96 % of control.

And the T/C (dose: 50.0 mg/kg/injection, vehicle: Klucel (hydroxypropylcellulose) (HPC))?
The T/C was 112 % of control.

What about the T/C (dose: 100.0 mg/kg/injection, vehicle: Klucel (hydroxypropylcellulose) (HPC)) of the same compound?
Its T/C is 106 % of control [9 of 10 alive].

And the survivor count (dose: 200.0 mg/kg/injection, vehicle: Klucel (hydroxypropylcellulose) (HPC))?
The survivor count was 3 of 10.

And the survivor count (dose: 400.0 mg/kg/injection, vehicle: Klucel (hydroxypropylcellulose) (HPC))?
Its survivor count is 5 of 10.
